Data on 31 molecules can be found in PubChem BioAssay AID248 (DTP/NCI, 2004).

The test system of this assay is L1210 leukemia ip in BDF1 mice, survival T/C. Kind of assay: NCI In Vivo Anticancer Drug Screen. Data for tumor model L1210 Leukemia (intraperitoneal) in B6D2F1 (BDF1) mice. The settings on record: T/C endpoint: mean survival time, higher T/C = longer survival.
The mark [1] stands for this setting: dose: 400.0 mg/kg/injection, schedule: Q01DX001 (ip), vehicle: saline.
Setting [2] is: dose: 200.0 mg/kg/injection, schedule: Q01DX009 (ip), vehicle: Klucel (hydroxypropylcellulose) (HPC).
[3] abbreviates: dose: 400.0 mg/kg/injection, schedule: Q04DX003 (ip), vehicle: saline.
The mark [4] stands for this setting: dose: 200.0 mg/kg/injection, schedule: Q04DX002 (ip), vehicle: Klucel (hydroxypropylcellulose) (HPC).
Where [5] appears, read: dose: 100.0 mg/kg/injection, schedule: Q04DX003 (ip), vehicle: saline with Tween-80.
[6] abbreviates: dose: 200.0 mg/kg/injection, schedule: Q04DX003 (ip), vehicle: saline with Tween-80.
Setting [7] is: dose: 400.0 mg/kg/injection, schedule: Q04DX003 (ip), vehicle: saline with Tween-80.
[8] abbreviates: dose: 400.0 mg/kg/injection, schedule: Q01DX001 (ip), vehicle: Klucel (hydroxypropylcellulose) (HPC).
Where [9] appears, read: dose: 400.0 mg/kg/injection, schedule: Q01DX009 (ip), vehicle: Klucel (hydroxypropylcellulose) (HPC).
Where [10] appears, read: dose: 100.0 mg/kg/injection, schedule: Q04DX003 (ip), vehicle: saline.
[11] abbreviates: dose: 200.0 mg/kg/injection, schedule: Q04DX003 (ip), vehicle: saline.
Where [12] appears, read: dose: 200.0 mg/kg/injection, schedule: Q04DX003 (ip), vehicle: Klucel (hydroxypropylcellulose) (HPC).
[13] abbreviates: dose: 400.0 mg/kg/injection, schedule: Q04DX003 (ip), vehicle: Klucel (hydroxypropylcellulose) (HPC).

Each structure is given as a SMILES string. The list shows only some results of the screen, not a fair sample: it gathers tests that were run many times, whatever their T/C, doses with no T/C, and many T/C values between a quarter and a half above the control. Further doses and runs are listed elsewhere. T/C is the treated group as % of the vehicle group. Some entries give survivors of the animals treated and no T/C: the source files T/C as zero there, which appears to mark a toxic dose or a test without result, not a measured value. Some survivor counts are full or nearly so, which does not show that the dose was tolerated: survival well below the control is almost never listed, so the zero probably covers shortened survival too. Counts of survivors are from the toxicity check (mostly the fifth day) where no day follows; animals may have died later. Schedule codes are those of the source, taken here to give the interval after Q, in days (D) or hours (H), and the number of doses after X. Some entries hold several experiments; the results are listed from low to high. For survival time, the PubChem record calls one and a half times the control and up active, and a quarter to a half above the control has no call in these data; cut-offs in other NCI protocols can differ.

With `CN(Cc1cnc2nc(N)nc(N)c2n1)c1ccc(C(=O)NC(CCC(=O)O)C(=O)O)c(Cl)c1` (stereo not drawn), where the note is “dose: 6.25 mg/kg/injection, schedule: Q01DX009 (ip), vehicle: sodium bicarbonate”, the survivor count is 0 of 10. Moreover, the T/C is, setting by setting: (dose: 12.5 mg/kg/injection, schedule: Q01DX009 (ip), vehicle: sodium bicarbonate) 138 % of control; (dose: 50.0 mg/kg/injection, schedule: Q01DX009 (ip), vehicle: sodium bicarbonate) 126 % of control.

On to `CN1C(c2ccco2)NC(=O)C12CCN(Cc1ccccc1)CC2` (stereo not drawn), for which the survivor count (dose: 400.0 mg/kg/injection, schedule: Q01DX001 (ip), vehicle: carboxymethylcellulose (CMC)) is 1 of 6.

Regarding `NC(N)=NC(N)=NCCc1ccccc1`, the survivor count under setting [1] was 1 of 6.

Turning to `O=C(Cc1cccc2ccccc12)N/N=C/c1ccccc1Cl`, the survivor count under setting [2] is 6 of 6.

In the case of `C=C(C)CC#N`, the survivor count under setting [3] is 5 of 6.

With `CC(C)OC(=O)Nc1ccc(C(F)(F)F)cc1`, the survivor count under setting [4] is 3 of 3.

Regarding `CN(C)CCC(=O)c1ccc([N+](=O)[O-])cc1`, the survivor count under setting [5] is reported as 0 of 6, the survivor count under setting [6] is 0 of 6 and the survivor count under setting [7] is on record as 0 of 6.

`Nc1nc2c(ncn2-c2ccc(OCCCOc3ccc(S(=O)(=O)F)cc3)cc2)c(=O)[nH]1`: the survivor count under setting [8] is given as 6 of 6.

In the case of `CSc1cccc(N2C(=O)C=CC2=O)c1`, the survivor count was 0 of 3 (dose: 20.0 mg/kg/injection, schedule: Q04DX002 (ip), vehicle: Klucel (hydroxypropylcellulose) (HPC)); 0 of 3 (dose: 40.0 mg/kg/injection, schedule: Q04DX002 (ip), vehicle: Klucel (hydroxypropylcellulose) (HPC)); 0 of 3 (dose: 100.0 mg/kg/injection, schedule: Q04DX002 (ip), vehicle: Klucel (hydroxypropylcellulose) (HPC)); 0 of 3 under setting [4]; 0 of 3 (dose: 400.0 mg/kg/injection, schedule: Q04DX002 (ip), vehicle: Klucel (hydroxypropylcellulose) (HPC)).

With `S=C(NCc1ccc(Cl)cc1Cl)Nc1ccccc1`, the survivor count under setting [9] is 0 of 6.

On to `N/N=C(/C=N/N)C(O)CO` (stereo not drawn), for which, for the setting “dose: 200.0 mg/kg/injection, schedule: Q01DX001 (ip), vehicle: saline with Tween-80”, the survivor count is recorded as 3 of 3.

Consider `O=C(O)c1c(Br)c(Br)c(Br)c(Br)c1C(=O)Nc1ccc([N+](=O)[O-])cc1`, for which the survivor count under setting [9] is reported as 4 of 6.

As for `S=C(Nc1cccc(Cl)c1)Nc1cccc(Cl)c1`, under setting [7], the survivor count was 0 of 3.

Consider `CC(C)(C)c1ccc(N)cc1`, for which the survivor count runs as follows: under setting [10], 3 of 3; under setting [11], 3 of 3; under setting [3], 2 of 3.

Turning to `CCCCCC[As](=O)(O)O`, the survivor count by setting is: (dose: 12.5 mg/kg/injection, schedule: Q01DX001 (ip), vehicle: carboxymethylcellulose (CMC)) 1 of 4; (dose: 25.0 mg/kg/injection, schedule: Q01DX001 (ip), vehicle: carboxymethylcellulose (CMC)) 0 of 4; (dose: 50.0 mg/kg/injection, schedule: Q01DX001 (ip), vehicle: carboxymethylcellulose (CMC)) 0 of 4.

As for `Cl/C(=N\Nc1ccccc1)c1ccccc1`, the T/C (dose: 7.5 mg/kg/injection, schedule: Q01DX009 (ip), vehicle: saline sonified) is 128 % of control.

For the molecule `Clc1nc2nc[nH]c2nc1Cl`, the survivor count is, setting by setting: under setting [12], 0 of 6; under setting [13], 0 of 6.

`CC(=O)CC(=O)Nc1cccc([N+](=O)[O-])c1`: the survivor count under setting [2] is recorded as 5 of 6 and the survivor count under setting [9] is 3 of 6.

Take `O=C=Nc1ccc(CCc2ccc(N=C=O)cc2)cc1`: the survivor count (dose: 400.0 mg/kg/injection, schedule: Q01DX009 (ip), vehicle: saline) is given as 4 of 6.

Take `CN1C(=O)N(Br)C(C)(C)C1=O`: the survivor count reads like this: under setting [2], 3 of 6; under setting [8], 2 of 6.

As for `CC[CH2][Pb]([CH2]CC)([CH2]CC)[O]C(=O)C1CCCCC1`, the survivor count is listed as 3 of 6 (dose: 12.5 mg/kg/injection, schedule: Q04DX003 (ip), vehicle: saline with Tween-80); 0 of 6 (dose: 25.0 mg/kg/injection, schedule: Q04DX003 (ip), vehicle: saline with Tween-80); 1 of 6 (dose: 50.0 mg/kg/injection, schedule: Q04DX003 (ip), vehicle: saline with Tween-80); 0 of 6 under setting [5]; 0 of 6 under setting [6]; 0 of 6 under setting [7].

Regarding `C[N+](C)(C)CCOc1ccccc1Cc1ccccc1`, the survivor count (dose: 6.25 mg/kg/injection, schedule: Q01DX009 (ip), vehicle: saline) was 2 of 6; the survivor count (dose: 18.0 mg/kg/injection, schedule: Q01DX009 (ip), vehicle: saline) is 0 of 6; the survivor count (dose: 25.0 mg/kg/injection, schedule: Q04DX003 (ip), vehicle: saline) is 4 of 6; the survivor count (dose: 28.0 mg/kg/injection, schedule: Q01DX009 (ip), vehicle: saline) is 0 of 6; the survivor count (dose: 40.0 mg/kg/injection, schedule: Q01DX009 (ip), vehicle: saline) is reported as 0 of 6; the survivor count (dose: 50.0 mg/kg/injection, schedule: Q04DX003 (ip), vehicle: saline) is on record as 0 of 6. The survivor count under setting [10] is 0 of 6, the survivor count under setting [11] was 0 of 6 and the survivor count under setting [3] is recorded as 0 of 6.

As for `Nc1nc(N)c(C=Nc2ccc(Br)cc2)c(Nc2ccc(Br)cc2)n1`, the survivor count is, setting by setting: (dose: 100.0 mg/kg/injection, schedule: Q01DX001 (ip), vehicle: alcohol) 4 of 4; (dose: 200.0 mg/kg/injection, schedule: Q01DX001 (ip), vehicle: alcohol) 4 of 4; (dose: 400.0 mg/kg/injection, schedule: Q01DX001 (ip), vehicle: alcohol) 4 of 4.

On to `O=[N+]([O-])c1ccc2cnn(CN3CCCCC3)c2c1`, for which, under “dose: 200.0 mg/kg/injection, schedule: Q01DX001 (ip), vehicle: carboxymethylcellulose (CMC)”, the survivor count is listed as 2 of 4.

For the molecule `Cc1cc2cccc(CN)c2cc1C`, the survivor count is 3 of 6 (dose: 200.0 mg/kg/injection, schedule: Q01DX001 (ip), vehicle: Klucel (hydroxypropylcellulose) (HPC)) and 0 of 6 under setting [8].

`CCCCNC(=O)Nc1cc(Cl)ccc1C`: the survivor count by setting is: (dose: 25.0 mg/kg/injection, schedule: Q01DX009 (ip), vehicle: Klucel (hydroxypropylcellulose) (HPC)) 6 of 6; (dose: 50.0 mg/kg/injection, schedule: Q01DX009 (ip), vehicle: Klucel (hydroxypropylcellulose) (HPC)) 5 of 6 and 6 of 6; under setting [2], 6 of 6; under setting [9], 6 of 6.

For the molecule `C1=CCC2CSCC2C1` (stereo not drawn), the survivor count (dose: 300.0 mg/kg/injection, schedule: Q01DX009 (ip), vehicle: saline sonified) is recorded as 0 of 6.

For the molecule `C=CC1(C)C=C2CCC3C(C)(C(=O)O)CCCC3(C)C2CC1` (stereo not drawn), the survivor count (dose: 400.0 mg/kg/injection, schedule: Q04DX002 (ip), vehicle: saline with Tween-80) is 0 of 3.

Consider `COc1ccc(C[n+]2cccc(CNC(=O)COc3ccc(Cl)c(Cl)c3)c2)cc1`, for which the survivor count by setting is: under setting [12], 3 of 6; under setting [13], 1 of 6.

`CCOC(=O)/C=C\CBr`: the survivor count is 3 of 6 (dose: 200.0 mg/kg/injection, schedule: Q01DX001 (ip), vehicle: saline) and 2 of 6 under setting [1].

Turning to `CCOC(=O)c1ccc(Nc2nnc(-c3ccccc3Cl)s2)cc1`, the survivor count (dose: 50.0 mg/kg/injection, schedule: Q04DX002 (ip), vehicle: gum acacia) is recorded as 3 of 3 and the survivor count (dose: 100.0 mg/kg/injection, schedule: Q04DX002 (ip), vehicle: gum acacia) is on record as 3 of 3.
